Data reported in PMC4019584.
The exact form of at least one protein or probe is not confirmed. Where cells or extracts were used, other partners may take part. For some of these results: The comparison behind a weaker result is the experiment's own reference, which may not be listed here. For some of these results: Where a protein sequence is shown, tags need not be part of it.

Assays:
NF-κB p50 [1] = molecular target: T1, NF-κB p50 (UniProt P19838); experiment: EMSA; conditions: p50/p50 homodimer, extract from AGS infected with H. pylori in presence of IL-22; 20 mM HEPES pH 7.9, 1 mM DTT, 2.5 mM MgCl2, 50 mM KCl, 2 µg poly dI:dC, 10 µg nuclear extract in 10 µl, room temperature 30 min; protein in an extract; label: 32P 5' end label
T1 sequence (looked up, limits assumed): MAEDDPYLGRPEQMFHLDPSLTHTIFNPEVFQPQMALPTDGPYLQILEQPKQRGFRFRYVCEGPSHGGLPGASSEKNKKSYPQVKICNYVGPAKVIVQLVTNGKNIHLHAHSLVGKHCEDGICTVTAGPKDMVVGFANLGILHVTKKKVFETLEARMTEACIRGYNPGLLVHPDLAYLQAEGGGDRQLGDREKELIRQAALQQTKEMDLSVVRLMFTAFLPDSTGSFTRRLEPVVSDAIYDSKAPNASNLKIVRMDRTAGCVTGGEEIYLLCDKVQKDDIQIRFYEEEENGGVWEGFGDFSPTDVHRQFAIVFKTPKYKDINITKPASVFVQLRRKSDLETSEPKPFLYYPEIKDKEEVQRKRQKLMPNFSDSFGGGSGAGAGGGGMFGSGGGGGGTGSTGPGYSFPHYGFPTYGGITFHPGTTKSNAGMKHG

NF-κB p50 + NF-κB p65 [2] = experiment: EMSA; conditions: p50/p65 heterodimer, extract from AGS infected with H. pylori in presence of IL-22; 20 mM HEPES pH 7.9, 1 mM DTT, 2.5 mM MgCl2, 50 mM KCl, 2 µg poly dI:dC, 10 µg nuclear extract in 10 µl, room temperature 30 min; protein in an extract; label: 32P 5' end label
NF-κB p50 [3] = molecular target: T1, NF-κB p50; experiment: EMSA supershift; conditions: p50/p50 homodimer, H. pylori-infected AGS nuclear extract, diminished by 100x cold probe; 20 mM HEPES pH 7.9, 1 mM DTT, 2.5 mM MgCl2, 50 mM KCl, 2 µg poly dI:dC, 10 µg nuclear extract in 10 µl, room temperature 30 min; protein in an extract; label: 32P 5' end label
NF-κB p50 + NF-κB p65 [4] = experiment: EMSA supershift; conditions: p50/p65 heterodimer, H. pylori-infected AGS nuclear extract, diminished by 100x cold probe; 20 mM HEPES pH 7.9, 1 mM DTT, 2.5 mM MgCl2, 50 mM KCl, 2 µg poly dI:dC, 10 µg nuclear extract in 10 µl, room temperature 30 min; protein in an extract; label: 32P 5' end label

ATCAATGGGGAAAACCCCATGTGGCAACACG (double strand) [CCL20 promoter -87 to -57 NF-κB probe]
binding result (NF-κB p50 [1]): binds more weakly | binding result (NF-κB p50 + NF-κB p65 [2]): binds more weakly | binding result (NF-κB p50 [3]): binds | binding result (NF-κB p50 + NF-κB p65 [4]): binds
